Measured data: PubChem BioAssay AID1224826 (NIAID, 2016)

- Assay: 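Knock-downs that raise or lower Tnf reporter signal after endotoxin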 (primary screen)
- Cells: RAW264.7 G9 macrophages from mouse bearing reporters for p65 (GFP) and the Tnf promoter (mCherry)
- Knock-down reagent: siRNA pool against mouse genes, 100 nM
- Time to read-out: 16 h of LPS stimulation, after 2 days of siRNA transfection
- Treatment: bacterial lipopolysaccharide (Salmonella minnesota R595), 10 ng/ml
- Measurement: 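Imaged Tnf reporter mCherry in nuclei, minus background, normalised per plate to the median and expressed as robust z-scores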
- Direction: Tnf reporter robust z-score: higher = stronger Tnf promoter reporter signal after LPS
- Hit rule: 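a well counts as active at a score of -1.3 or below (Tlr4 knock-down control median) or above 3 (raised signal); controls and wells holding fewer than 50 cells are excluded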
- Meaning of the calls: active = Tnf reporter clearly lowered or raised; inactive = no clear change in Tnf reporter
Shown is one part, drawn at random, of about 17,000 reagents tested. In the full data, about 1,110 (6.6%) are marked active. 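Active means lowered or raised reporter signal; replicate intensities are raw and not normalised per plate.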 Further read-outs or replicates are left out here. No sequences are given here.

For Kcnab1, what was measured?
Tnf reporter robust z-score: -0.57; fewer than 50 cells in well: enough cells in well; Call: inactive

Which result is listed for Anapc2?
Tnf reporter robust z-score: -0.2; fewer than 50 cells in well: enough cells in well; Call: inactive

What is on record for Zw10?
Tnf reporter robust z-score: 0.7; fewer than 50 cells in well: enough cells in well; Call: inactive

For Rnf128, what was measured?
Tnf reporter robust z-score: -0.41; fewer than 50 cells in well: enough cells in well; Call: inactive

For Ppp1r15a, what does the deposit list?
Tnf reporter robust z-score: 0.47; fewer than 50 cells in well: enough cells in well; Call: inactive

For Brip1os, what does the deposit list?
Tnf reporter robust z-score: 0.57; fewer than 50 cells in well: enough cells in well; Call: inactive

How did the screen score Pik3r5?
Tnf reporter robust z-score: -0.27; fewer than 50 cells in well: enough cells in well; Call: inactive

For Abcc9, how do the results read?
Tnf reporter robust z-score: -0.23; fewer than 50 cells in well: enough cells in well; Call: inactive

For Kctd10, what does the deposit list?
Tnf reporter robust z-score: -0.43; fewer than 50 cells in well: enough cells in well; Call: inactive

With Grem2, what does the deposit list?
Tnf reporter robust z-score: -0.23; fewer than 50 cells in well: enough cells in well; Call: inactive

How did the screen score Vmn1r212?
Tnf reporter robust z-score: 0.07; fewer than 50 cells in well: enough cells in well; Call: inactive

How did the screen score Mtcl1?
Tnf reporter robust z-score: -0.95; fewer than 50 cells in well: enough cells in well; Call: inactive

No new results follow: entries from further up.
Kctd10: Tnf reporter robust z-score = -0.43; fewer than 50 cells in well = enough cells in well; Call = inactive
Grem2: Tnf reporter robust z-score = -0.23; fewer than 50 cells in well = enough cells in well; Call = inactive
